Data as given in US20100004156A1, “Small Compounds That Correct Protein Misfolding and Uses Thereof” (priority 2005, published 2010).
At least one structure is not confirmed: it was looked up by name or label, or the drawing left a doubt.

Tested on: wild-type opsin
Assay: Recovery of wild-type rhodopsin from tetracycline-inducible HEK293 cells (immunoaffinity purification, absorbance at 500 nm)
Assay type: cell-based
Settings: inhibitor added at induction with 11-cis-retinal, Examples 2-9, FIGS. 1B-8B
Procedure: Mutant P23H and wild-type opsins were expressed separately in tetracycline-inducible stable HEK293 cell lines in the presence of 11-cis retinal and various inhibitors. At forty-eight hours, the folded proteins were immununoaffinity purified and quantitated by UV-visible spectroscopy. The total amount of opsin protein was assayed at 280 nm. The amount of rhodopsin present in a biochemically functional conformation was assayed at 500 nm. Immunofluorescence microscopy was also performed to determine the cellular location of the proteins.
Stable wild-type and P23H opsin expressing HEK293 cell lines were generated in the Flp-In T-Rex system (Invitrogen). The BEK293 cells were grown in DMEM high glucose media supplemented with 10% fetal bovine serum, antibiotic-antimycotic solution, 5 μg/ml blasticidin and hygromycin at 37° C. in the presence of 8% CO2.
The opsin expressing HEK293 cell lines were allowed to reach confluence and were induced with 1 μg/ml tetracycline after a change of media. 10 μM 11-cis retinal was immediately added after induction under a red light, and inhibitors were added concurrently at the concentrations shown in Table 2 (below).
The plates were incubated for forty-eight hours. 10 uM of retinal was provided twenty-four hours after the first application, under red light. […]

**Q.** How did the “increase in the recovery (yield) of wild-type rhodopsin” value turn out when COC1=C2C[C@@H](C)C[C@H](OC)[C@H](O)[C@@H](C)/C=C(\C)[C@H](OC(N)=O)[C@@H](OC)/C=C\C=C(/C)C(=O)NC(=CC1=O)C2=O [Geldanamycin] was run?
**A.** The value was “negligible increase”.
